Measurements reported in patent publication US11591318B2, “Bipyrazole derivatives as JAK inhibitors” (Incyte Corporation, priority 2013, dated 2023).
For at least one compound, name, drawing or mass did not settle the structure.

What follows are molecules tested on human JAK1 (a.a. 837-1142) (assay: In vitro JAK kinase assay (HTRF), JAK1). Settings: ratio of IC50 values at 1 mM ATP.
Format: biochemical
Experimental: The catalytic activity of JAK1, JAK2 or JAK3 was assayed by measuring the phosphorylation of a biotinylated peptide. The phosphorylated peptide was detected by homogenous time resolved fluorescence (HTRF). […] Reactions were carried out at room temperature for 1 hour and then stopped with 20 μL 45 mM EDTA, 300 nM SA-APC, 6 nM Eu-Py20 in assay buffer (Perkin Elmer, Boston, Mass.). Binding to the Europium labeled antibody took place for 40 minutes and HTRF signal was measured on a Fusion plate reader (Perkin Elmer, Boston, Mass.).

Structure (SMILES)	JAK2/JAK1
Cc1n[nH]cc1-c1cn(C2(CC#N)CN(c3cc(F)c(C(=O)N[C@@H](C)C(F)(F)F)cc3F)C2)nc1CO [Example 13, 4-{3-(Cyanomethyl)-3-[3-(hydroxymethyl)-3′-methyl-1H,1′H-4,4′-bipyrazol-1-yl]azetidin-1-yl}-2,5-difluoro-N-[(1S)-2,2,2-trifluoro-1-methylethyl]benzamide]	>10
Cc1n[nH]c(C)c1-c1cnn(C2(CC#N)CN(c3cnc(C(=O)N[C@@H](C)C(F)(F)F)cn3)C2)c1.O=C(O)C(F)(F)F [Example 9, 5-[3-(Cyanomethyl)-3-(3′,5′-dimethyl-1H,1′H-4,4′-bipyrazol-1-yl)azetidin-1-yl]-N-[(1S)-2,2,2-trifluoro-1-methylethyl]pyrazine-2-carboxamide trifluoroacetate]	>10
Cc1n[nH]cc1-c1cnn(C2(CC#N)CN(c3ccc(C(=O)NC(C)C)cc3)C2)c1.O=C(O)C(F)(F)F [Example 3, 4-[3-(Cyanomethyl)-3-(3′-methyl-1H,1′H-4,4′-bipyrazol-1-yl)azetidin-1-yl]-N-isopropylbenzamide trifluoroacetate]	>10
